Results deposited as PubChem BioAssay AID504793 (Drosophila RNAi Screening Center, 2011)
Assay: 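Genes required for cells to halt at G2/M after double-strand DNA breaks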 (primary screen). System: Drosophila S2R+ cells. Reagents: long dsRNA against Drosophila genes, about 0.25 µg dsRNA per well. Time to read-out: 4 days of dsRNA, then 4 hours of drug before read-out. Conditions: doxorubicin 0.5 µM for 4 hours to cause double-strand breaks, in cells also given a low, harmless dose of dsRNA against nbs to sensitise the assay. Measured: 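Mitotic index as the number of phospho-histone H3-positive cells in each well following doxorubicin, given as raw counts without normalisation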. Direction: mitotic cells: higher = more cells in mitosis, weaker G2 arrest. Hit rule: 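a call needs confirmation in secondary tests, with other dsRNAs and a check of mitotic timing without damage, not just a high primary count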. Meaning of the calls: active = confirmed in follow-up tests; inactive = not confirmed.
The screen tested about 23,000 reagents; shown is an unselected part of those with a known target gene and a result. In the full data, 62 (0.27%) were called active. 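Calls come from follow-up tests whose scores are not deposited, so confirmed genes may have low counts here; counts are not normalised per plate.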 Raw values vary from plate to plate and are shown uncorrected. Reagents against one gene are numbered here. Names joined by + are all predicted targets of the reagent.

target gene | reagent no. | mitotic cells, replicate 1 | mitotic cells, replicate 2 | call
TwdlR (GeneID 318586) | 1 | 13 | – | inactive
Cow (GeneID 42733) | 1 | 13 | – | inactive
Cow (GeneID 42733) | 2 | 8 | – | inactive
Cow (GeneID 42733) | 3 | 8 | – | inactive
CG31176 (GeneID 42554) | 1 | 14 | – | inactive
CG31176 (GeneID 42554) | 2 | 12 | – | inactive
CG2938 (GeneID 31347) | 1 | 6 | – | inactive
CG2938 (GeneID 31347) | 2 | 5 | – | inactive
Cpr78Cc (GeneID 40355) | 1 | 4 | – | inactive
Neos (GeneID 38795) | 1 | 10 | – | inactive
CG30350 (GeneID 246556) | 1 | 8 | – | inactive
Cnep1r2 (GeneID 39204) | 1 | 4 | – | inactive
TwdlE (GeneID 34075) | 1 | – | – | inactive
TwdlE (GeneID 34075) | 2 | 12 | – | inactive
CG30485 (GeneID 246644) | 1 | 12 | – | inactive
betaTub97EF (GeneID 43359) | 1 | 157 | – | inactive
betaTub97EF (GeneID 43359) | 2 | 12 | – | inactive
betaTub97EF (GeneID 43359) | 3 | 15 | – | inactive
Adss (GeneID 42466) | 1 | 8 | – | inactive
Adss (GeneID 42466) | 2 | 7 | – | inactive
nst (GeneID 39434) | 1 | 7 | – | inactive
beat-IIa (GeneID 42086) | 1 | 4 | – | inactive
beat-IIa (GeneID 42086) | 2 | 6 | – | inactive
galla-1 (GeneID 246485) | 1 | 2 | – | inactive
CG14418 (GeneID 31275) | 1 | 15 | – | inactive
Nup160 + RfC38 | 1 | 6 | – | inactive
Irp-1A (GeneID 42689) | 1 | 6 | 16 | inactive
SkpA (GeneID 31016) | 1 | 21 | – | active
SkpA (GeneID 31016) | 2 | 7 | – | inactive
Spn28B (GeneID 34035) | 1 | 6 | 13 | inactive
CG17349 (GeneID 35209) | 1 | 2 | – | inactive
Syt1 (GeneID 33473) | 1 | 36 | – | inactive
Syt1 (GeneID 33473) | 2 | 7 | – | inactive
Syt1 (GeneID 33473) | 3 | 35 | – | inactive
Syt1 (GeneID 33473) | 4 | 5 | – | inactive
Syt1 (GeneID 33473) | 5 | 9 | – | inactive
Syt1 (GeneID 33473) | 6 | 3 | – | inactive
GMF (GeneID 34963) | 1 | 7 | – | inactive
CG10345 (GeneID 42017) | 1 | 4 | – | inactive
Dd (GeneID 33107) | 1 | 2 | – | inactive
Mpcp1 (GeneID 37297) | 1 | 7 | – | inactive
CG8478 (GeneID 41194) | 1 | 3 | – | inactive
put (GeneID 41772) | 1 | 2 | – | inactive
RpS8 (GeneID 43532) | 1 | 9 | – | inactive
eIF4H1 (GeneID 49809) | 1 | 10 | – | inactive
Or83a (GeneID 40648) | 1 | 7 | – | inactive
CG6428 (GeneID 31351) | 1 | 5 | – | inactive
Lcp65APsi (GeneID 3771993) | 1 | 4 | – | inactive
Lcp65APsi (GeneID 3771993) | 2 | 4 | – | inactive
Ac13E (GeneID 32485) | 1 | 10 | – | inactive
Ac13E (GeneID 32485) | 2 | 3 | – | inactive
Tdh (GeneID 40268) | 1 | 4 | – | inactive
Ir7d (GeneID 7354416) | 1 | 8 | – | inactive
Tsp42Ei (GeneID 35618) | 1 | 6 | – | inactive
Tsp42Ei (GeneID 35618) | 2 | 4 | – | inactive
dmrt93B (GeneID 42494) | 1 | 5 | – | inactive
dmrt93B (GeneID 42494) | 2 | 7 | – | inactive
Snx3 (GeneID 41551) | 1 | 6 | – | inactive
Snx3 (GeneID 41551) | 2 | 6 | – | inactive
dpr4 (GeneID 3346160) | 1 | 5 | – | inactive
dpr4 (GeneID 3346160) | 2 | 6 | – | inactive
CG10431 (GeneID 35157) | 1 | 3 | – | inactive
CG31373 (GeneID 318700) | 1 | 5 | – | inactive
CG12729 (GeneID 31515) | 1 | 9 | – | inactive
CG12729 (GeneID 31515) | 2 | 6 | – | inactive
CG9547 (GeneID 33911) | 1 | 4 | – | inactive
CG9547 (GeneID 33911) | 2 | 2 | – | inactive
run (GeneID 33059) | 1 | 4 | – | inactive
run (GeneID 33059) | 2 | 7 | – | inactive
run (GeneID 33059) | 3 | 10 | – | inactive
RpS20 (GeneID 42464) | 1 | 9 | – | inactive
CG14891 (GeneID 42013) | 1 | 10 | – | inactive
CG14125 (GeneID 39359) | 1 | 3 | – | inactive
tea (GeneID 36027) | 1 | 11 | – | inactive
tea (GeneID 36027) | 2 | 4 | – | inactive
Larp4B (GeneID 38399) | 1 | 7 | – | inactive
Larp4B (GeneID 38399) | 2 | 4 | – | inactive
Pif1A + Pif1B | 1 | 5 | – | inactive
Pif1A + Pif1B | 2 | 3 | – | inactive
Pif1A + Pif1B | 3 | 3 | – | inactive
px (GeneID 37573) | 1 | 8 | – | inactive
px (GeneID 37573) | 2 | 2 | – | inactive
Eip93F (GeneID 44936) | 1 | 9 | – | inactive
Eip93F (GeneID 44936) | 2 | 2 | – | inactive
yellow-e2 (GeneID 41652) | 1 | 7 | – | inactive
CG4000 (GeneID 42451) | 1 | 11 | – | inactive
CG4000 (GeneID 42451) | 2 | 8 | – | inactive
CG4000 (GeneID 42451) | 3 | 7 | – | inactive
CG42502 + CG10570 | 1 | 6 | – | inactive
MME1 (GeneID 33987) | 1 | 1 | – | inactive
Nsf2 (GeneID 41694) | 1 | 9 | – | inactive
Nsf2 (GeneID 41694) | 2 | 5 | – | inactive
Nna1 (GeneID 32329) | 1 | 7 | – | inactive
Nna1 (GeneID 32329) | 2 | 9 | – | inactive
Nf-YA (GeneID 39091) | 1 | 14 | – | inactive
CG8562 (GeneID 38828) | 1 | 2 | – | inactive
CG8562 (GeneID 38828) | 2 | 3 | – | inactive
Sgp (GeneID 34188) | 1 | 5 | – | inactive
CG4168 (GeneID 34889) | 1 | 3 | – | inactive
CG4168 (GeneID 34889) | 2 | 4 | – | inactive
CG4168 (GeneID 34889) | 3 | 7 | – | inactive
CG4168 (GeneID 34889) | 4 | 7 | – | inactive
Mi-2 + Su(Tpl) | 1 | 17 | – | inactive
CG15255 (GeneID 34913) | 1 | 4 | – | inactive
CG15255 (GeneID 34913) | 2 | 14 | – | inactive
Ppox (GeneID 42939) | 1 | 15 | – | inactive
CG5262 (GeneID 40258) | 1 | 6 | – | inactive
CG11247 (GeneID 40414) | 1 | 11 | – | inactive
CG11247 (GeneID 40414) | 2 | 21 | – | inactive
CG11247 (GeneID 40414) | 3 | 10 | – | inactive
CG30357 (GeneID 246563) | 1 | 45 | – | inactive
CG3402 (GeneID 38077) | 1 | 3 | – | inactive
CG5906 (GeneID 39343) | 1 | 2 | – | inactive
CG31689 (GeneID 326154) | 1 | 7 | – | inactive
CG10516 (GeneID 39738) | 1 | 4 | – | inactive
CG6041 (GeneID 31527) | 1 | 12 | – | inactive
CG6041 (GeneID 31527) | 2 | 14 | – | inactive
CG12609 (GeneID 32862) | 1 | 4 | – | inactive
sowah (GeneID 39438) | 1 | 8 | – | inactive
sowah (GeneID 39438) | 2 | 1 | – | inactive
CG42366 (GeneID 34319) | 1 | 3 | – | inactive
CG42366 (GeneID 34319) | 2 | 11 | – | inactive
PVRAP (GeneID 38677) | 1 | 1 | – | inactive
hiw (GeneID 32429) | 1 | 9 | – | inactive
hiw (GeneID 32429) | 2 | 7 | – | inactive
hiw (GeneID 32429) | 3 | 6 | – | inactive
Ir64a (GeneID 38616) | 1 | 8 | – | inactive
Ir64a (GeneID 38616) | 2 | 6 | – | inactive
Dus1 (GeneID 33190) | 1 | 8 | – | inactive
CG13010 (GeneID 32643) | 1 | 9 | – | inactive
CG13010 (GeneID 32643) | 2 | 6 | – | inactive
CG13073 (GeneID 39773) | 1 | 3 | – | inactive
CG13073 (GeneID 39773) | 2 | 11 | – | inactive
CG12123 (GeneID 31777) | 1 | 7 | – | inactive
CG33099 (GeneID 326254) | 1 | 4 | – | inactive
CG33099 (GeneID 326254) | 2 | 6 | – | inactive
pen-2 (GeneID 251430) | 1 | 5 | – | inactive
arg (GeneID 46717) | 1 | 13 | – | inactive
arg (GeneID 46717) | 2 | 6 | – | inactive
PH4alphaSG2 (GeneID 43623) | 1 | 9 | – | inactive

Already shown: entries from further up.
target gene | reagent no. | mitotic cells, replicate 1 | mitotic cells, replicate 2 | call
CG9547 (GeneID 33911) | 1 | 4 | – | inactive
CG9547 (GeneID 33911) | 2 | 2 | – | inactive
run (GeneID 33059) | 1 | 4 | – | inactive
run (GeneID 33059) | 2 | 7 | – | inactive
run (GeneID 33059) | 3 | 10 | – | inactive
RpS20 (GeneID 42464) | 1 | 9 | – | inactive
